Results: the supplement of paper PMC6411743
± gives the standard deviation of the averaged measurements. The entries are a selection whose mix differs from that of the whole data set.

By UniProt entry, the sequences of proteins in these tests, tags left out. Where a name states a change or a piece, a line headed by the entry shows the natural chain unless it says otherwise.
UniProt Q7Z3K6: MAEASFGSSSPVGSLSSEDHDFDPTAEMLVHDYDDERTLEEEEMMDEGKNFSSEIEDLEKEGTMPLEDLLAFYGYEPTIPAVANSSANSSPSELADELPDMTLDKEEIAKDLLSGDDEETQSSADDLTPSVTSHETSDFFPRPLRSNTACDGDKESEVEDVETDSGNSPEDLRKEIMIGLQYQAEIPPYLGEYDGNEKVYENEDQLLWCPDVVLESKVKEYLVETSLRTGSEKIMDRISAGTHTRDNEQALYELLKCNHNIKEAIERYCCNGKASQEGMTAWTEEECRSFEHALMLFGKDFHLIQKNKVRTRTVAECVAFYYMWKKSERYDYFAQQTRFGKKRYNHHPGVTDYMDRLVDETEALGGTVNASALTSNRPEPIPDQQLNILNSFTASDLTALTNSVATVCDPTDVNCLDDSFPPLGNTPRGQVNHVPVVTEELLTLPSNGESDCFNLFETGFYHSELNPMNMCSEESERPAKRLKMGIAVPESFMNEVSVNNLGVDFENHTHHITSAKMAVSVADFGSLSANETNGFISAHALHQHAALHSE
UniProt Q6SPF0: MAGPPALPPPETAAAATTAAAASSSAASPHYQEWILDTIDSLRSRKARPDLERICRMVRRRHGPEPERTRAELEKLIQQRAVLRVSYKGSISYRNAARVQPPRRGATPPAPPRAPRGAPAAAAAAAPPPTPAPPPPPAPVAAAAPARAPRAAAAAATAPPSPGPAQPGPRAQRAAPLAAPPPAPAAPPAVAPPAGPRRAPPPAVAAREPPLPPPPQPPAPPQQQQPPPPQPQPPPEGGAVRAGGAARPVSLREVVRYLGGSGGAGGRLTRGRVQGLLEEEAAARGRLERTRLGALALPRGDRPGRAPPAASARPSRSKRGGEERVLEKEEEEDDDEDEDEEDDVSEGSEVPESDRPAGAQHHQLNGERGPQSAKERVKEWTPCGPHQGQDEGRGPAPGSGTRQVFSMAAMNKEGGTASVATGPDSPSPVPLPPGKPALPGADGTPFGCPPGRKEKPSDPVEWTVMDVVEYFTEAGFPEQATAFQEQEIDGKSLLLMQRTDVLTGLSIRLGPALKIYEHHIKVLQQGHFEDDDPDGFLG
UniProt Q7Z3U7: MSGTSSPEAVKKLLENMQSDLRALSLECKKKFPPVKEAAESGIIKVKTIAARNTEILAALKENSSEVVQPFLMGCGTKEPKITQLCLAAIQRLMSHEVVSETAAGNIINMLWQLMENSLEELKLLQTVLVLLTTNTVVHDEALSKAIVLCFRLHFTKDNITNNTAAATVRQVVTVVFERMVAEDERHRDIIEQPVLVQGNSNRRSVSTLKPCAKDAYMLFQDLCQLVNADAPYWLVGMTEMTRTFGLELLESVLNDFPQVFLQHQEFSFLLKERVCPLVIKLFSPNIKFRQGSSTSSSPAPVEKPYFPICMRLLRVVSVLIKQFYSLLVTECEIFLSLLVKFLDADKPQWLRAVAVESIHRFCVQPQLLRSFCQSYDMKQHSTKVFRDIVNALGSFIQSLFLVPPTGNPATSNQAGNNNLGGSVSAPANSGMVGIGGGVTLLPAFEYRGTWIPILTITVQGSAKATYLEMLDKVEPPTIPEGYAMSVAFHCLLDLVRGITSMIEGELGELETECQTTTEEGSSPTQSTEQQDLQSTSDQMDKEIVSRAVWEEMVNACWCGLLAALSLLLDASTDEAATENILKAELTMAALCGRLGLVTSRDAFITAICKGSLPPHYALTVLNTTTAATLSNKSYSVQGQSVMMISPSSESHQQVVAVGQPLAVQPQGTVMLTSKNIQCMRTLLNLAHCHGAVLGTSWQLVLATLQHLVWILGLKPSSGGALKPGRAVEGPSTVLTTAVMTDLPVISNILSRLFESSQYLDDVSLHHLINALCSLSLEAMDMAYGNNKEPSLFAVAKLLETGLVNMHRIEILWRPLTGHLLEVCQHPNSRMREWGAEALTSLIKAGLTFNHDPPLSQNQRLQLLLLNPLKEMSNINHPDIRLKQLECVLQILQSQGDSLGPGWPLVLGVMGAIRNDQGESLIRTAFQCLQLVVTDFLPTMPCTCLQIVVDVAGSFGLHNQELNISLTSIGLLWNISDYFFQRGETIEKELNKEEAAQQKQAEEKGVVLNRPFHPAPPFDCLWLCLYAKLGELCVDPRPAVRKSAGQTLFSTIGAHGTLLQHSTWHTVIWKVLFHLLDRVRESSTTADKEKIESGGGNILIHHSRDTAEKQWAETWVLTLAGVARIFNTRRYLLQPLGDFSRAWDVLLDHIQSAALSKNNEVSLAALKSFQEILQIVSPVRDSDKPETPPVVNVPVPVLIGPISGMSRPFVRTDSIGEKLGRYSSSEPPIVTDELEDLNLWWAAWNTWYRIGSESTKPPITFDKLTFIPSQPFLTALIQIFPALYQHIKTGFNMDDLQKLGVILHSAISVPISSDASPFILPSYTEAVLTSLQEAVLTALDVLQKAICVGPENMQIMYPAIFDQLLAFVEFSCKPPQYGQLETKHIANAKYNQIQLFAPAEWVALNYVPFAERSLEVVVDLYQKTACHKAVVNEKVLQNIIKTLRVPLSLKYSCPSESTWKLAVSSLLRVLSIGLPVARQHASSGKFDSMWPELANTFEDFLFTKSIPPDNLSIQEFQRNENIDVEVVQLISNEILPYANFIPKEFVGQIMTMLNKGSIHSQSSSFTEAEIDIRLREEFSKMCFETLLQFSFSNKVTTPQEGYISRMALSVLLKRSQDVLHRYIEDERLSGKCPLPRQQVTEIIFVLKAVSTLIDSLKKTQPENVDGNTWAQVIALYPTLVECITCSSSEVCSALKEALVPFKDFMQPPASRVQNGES
UniProt Q709C8: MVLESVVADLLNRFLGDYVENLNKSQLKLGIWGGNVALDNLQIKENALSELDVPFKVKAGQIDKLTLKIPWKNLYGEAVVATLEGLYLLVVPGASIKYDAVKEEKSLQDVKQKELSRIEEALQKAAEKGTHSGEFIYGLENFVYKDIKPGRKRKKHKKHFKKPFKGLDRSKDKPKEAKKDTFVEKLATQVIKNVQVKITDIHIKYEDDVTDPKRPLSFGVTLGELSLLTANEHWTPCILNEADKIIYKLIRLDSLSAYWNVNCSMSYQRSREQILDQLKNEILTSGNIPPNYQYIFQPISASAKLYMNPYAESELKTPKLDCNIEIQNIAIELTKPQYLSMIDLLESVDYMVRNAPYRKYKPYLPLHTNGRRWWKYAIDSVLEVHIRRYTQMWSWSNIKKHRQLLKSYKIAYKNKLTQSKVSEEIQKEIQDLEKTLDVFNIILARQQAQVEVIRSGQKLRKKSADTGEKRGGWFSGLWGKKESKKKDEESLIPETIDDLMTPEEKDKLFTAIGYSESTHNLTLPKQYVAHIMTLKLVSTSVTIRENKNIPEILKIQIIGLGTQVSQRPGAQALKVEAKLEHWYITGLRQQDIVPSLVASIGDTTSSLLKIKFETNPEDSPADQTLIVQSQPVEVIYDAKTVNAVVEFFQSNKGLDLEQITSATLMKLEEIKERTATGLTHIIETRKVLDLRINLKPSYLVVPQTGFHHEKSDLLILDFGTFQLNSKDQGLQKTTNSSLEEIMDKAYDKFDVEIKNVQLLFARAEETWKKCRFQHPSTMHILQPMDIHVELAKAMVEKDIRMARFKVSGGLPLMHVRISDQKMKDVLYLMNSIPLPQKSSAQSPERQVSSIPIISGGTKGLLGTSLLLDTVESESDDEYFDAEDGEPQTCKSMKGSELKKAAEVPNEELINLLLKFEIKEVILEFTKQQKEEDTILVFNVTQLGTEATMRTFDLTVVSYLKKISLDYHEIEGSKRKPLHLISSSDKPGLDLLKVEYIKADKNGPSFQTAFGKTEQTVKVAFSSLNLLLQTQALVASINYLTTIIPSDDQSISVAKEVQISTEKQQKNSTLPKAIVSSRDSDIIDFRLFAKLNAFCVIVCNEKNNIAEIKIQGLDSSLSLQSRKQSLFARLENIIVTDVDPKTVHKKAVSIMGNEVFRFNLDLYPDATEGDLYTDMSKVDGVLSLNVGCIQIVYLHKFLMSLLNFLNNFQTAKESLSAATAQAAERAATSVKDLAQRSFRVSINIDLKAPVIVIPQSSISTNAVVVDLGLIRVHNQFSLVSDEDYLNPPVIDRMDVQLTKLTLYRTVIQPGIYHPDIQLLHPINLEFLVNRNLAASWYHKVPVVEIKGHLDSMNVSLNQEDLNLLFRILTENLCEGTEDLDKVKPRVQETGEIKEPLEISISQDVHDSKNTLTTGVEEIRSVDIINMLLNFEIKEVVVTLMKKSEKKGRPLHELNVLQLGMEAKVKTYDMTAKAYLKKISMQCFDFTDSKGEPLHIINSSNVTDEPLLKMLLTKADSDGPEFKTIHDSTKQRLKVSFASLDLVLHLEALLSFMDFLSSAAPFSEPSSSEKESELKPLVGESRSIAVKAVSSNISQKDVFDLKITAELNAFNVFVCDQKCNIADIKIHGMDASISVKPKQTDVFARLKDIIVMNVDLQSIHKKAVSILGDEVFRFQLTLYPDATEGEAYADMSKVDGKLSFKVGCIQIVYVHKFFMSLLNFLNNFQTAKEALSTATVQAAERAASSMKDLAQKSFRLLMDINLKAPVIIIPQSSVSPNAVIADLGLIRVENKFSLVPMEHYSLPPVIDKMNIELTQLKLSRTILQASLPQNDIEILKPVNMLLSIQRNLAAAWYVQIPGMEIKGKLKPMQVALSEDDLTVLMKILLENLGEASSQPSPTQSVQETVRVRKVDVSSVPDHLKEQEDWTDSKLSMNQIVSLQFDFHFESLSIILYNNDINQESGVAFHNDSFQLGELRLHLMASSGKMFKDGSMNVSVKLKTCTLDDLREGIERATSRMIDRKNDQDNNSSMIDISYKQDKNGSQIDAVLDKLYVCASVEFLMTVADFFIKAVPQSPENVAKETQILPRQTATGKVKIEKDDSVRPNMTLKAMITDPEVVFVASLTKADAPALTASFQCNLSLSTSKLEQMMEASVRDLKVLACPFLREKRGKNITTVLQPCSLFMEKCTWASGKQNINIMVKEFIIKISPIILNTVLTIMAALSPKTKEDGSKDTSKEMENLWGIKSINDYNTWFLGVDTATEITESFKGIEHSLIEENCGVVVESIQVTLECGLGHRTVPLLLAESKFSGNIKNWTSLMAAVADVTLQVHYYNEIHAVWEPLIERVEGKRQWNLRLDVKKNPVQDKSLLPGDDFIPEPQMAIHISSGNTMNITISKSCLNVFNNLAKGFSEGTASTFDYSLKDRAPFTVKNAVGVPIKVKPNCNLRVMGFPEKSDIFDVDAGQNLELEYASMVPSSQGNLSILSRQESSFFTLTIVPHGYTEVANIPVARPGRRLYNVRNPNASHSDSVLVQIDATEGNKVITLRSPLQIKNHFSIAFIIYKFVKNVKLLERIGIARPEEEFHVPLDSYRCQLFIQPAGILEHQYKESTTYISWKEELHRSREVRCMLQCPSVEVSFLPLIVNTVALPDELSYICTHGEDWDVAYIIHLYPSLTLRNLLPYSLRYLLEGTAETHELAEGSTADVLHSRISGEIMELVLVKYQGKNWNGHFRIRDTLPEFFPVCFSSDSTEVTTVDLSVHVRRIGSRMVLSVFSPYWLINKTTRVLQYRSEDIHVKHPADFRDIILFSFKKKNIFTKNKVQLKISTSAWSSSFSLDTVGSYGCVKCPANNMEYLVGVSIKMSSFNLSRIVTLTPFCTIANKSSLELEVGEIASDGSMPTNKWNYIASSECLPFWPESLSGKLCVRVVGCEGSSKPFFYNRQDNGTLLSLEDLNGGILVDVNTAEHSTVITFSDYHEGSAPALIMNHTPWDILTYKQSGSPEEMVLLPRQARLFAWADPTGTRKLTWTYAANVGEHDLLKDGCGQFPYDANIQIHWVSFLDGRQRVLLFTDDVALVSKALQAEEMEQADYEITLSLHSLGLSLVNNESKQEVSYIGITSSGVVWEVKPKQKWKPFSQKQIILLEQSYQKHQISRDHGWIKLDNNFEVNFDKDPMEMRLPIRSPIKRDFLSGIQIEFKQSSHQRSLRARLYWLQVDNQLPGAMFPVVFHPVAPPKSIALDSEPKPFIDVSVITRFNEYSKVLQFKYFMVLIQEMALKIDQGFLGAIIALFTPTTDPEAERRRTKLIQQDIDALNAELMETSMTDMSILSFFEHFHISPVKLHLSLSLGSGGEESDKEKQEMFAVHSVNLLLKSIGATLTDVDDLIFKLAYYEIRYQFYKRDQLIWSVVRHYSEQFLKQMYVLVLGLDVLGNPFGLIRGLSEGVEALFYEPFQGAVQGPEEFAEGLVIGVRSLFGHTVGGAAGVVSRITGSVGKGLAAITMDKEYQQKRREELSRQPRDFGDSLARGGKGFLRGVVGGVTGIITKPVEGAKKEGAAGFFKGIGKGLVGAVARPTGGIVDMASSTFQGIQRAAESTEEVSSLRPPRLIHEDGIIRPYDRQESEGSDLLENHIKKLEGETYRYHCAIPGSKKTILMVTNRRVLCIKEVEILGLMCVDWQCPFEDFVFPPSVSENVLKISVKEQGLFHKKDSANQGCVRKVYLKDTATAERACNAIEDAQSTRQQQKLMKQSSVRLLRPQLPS

Compound: Nc1ncnc2c1ncn2[C@@H]1O[C@H](COP(=O)(O)OP(=O)(O)OP(=O)(O)O)[C@@H](O)[C@H]1O [adenosine triphosphate]
Test: NP40-soluble protein abundance relative to vehicle (solubility fold change) (ratio); higher = more soluble protein in presence of ATP
In short: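 Jurkat crude lysate prepared with a Dounce homogeniser was treated at eight concentrations spanning 0.1 to 10 mM, 10 min at room temperature then 3 min at 37 °C. Solubilisation with 0.8% NP40 and benzonase and ultracentrifugation preceded TMT labelling of the supernatant for LC-MS/MS. Fold change against the detergent-processed vehicle was determined per replicate from vsn-normalised intensities, across three independent experiments.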

Target	NP40-soluble protein abundance (concentration: 1mM)	NP40-soluble protein abundance (concentration: 2mM)	NP40-soluble protein abundance (concentration: 4mM)	NP40-soluble protein abundance (concentration: 6mM)	NP40-soluble protein abundance (concentration: 8mM)	NP40-soluble protein abundance (concentration: 10mM)
SASS6 (UniProt Q6UVJ0)	1.03 ± 0.039	0.987 ± 0.031	1.02 ± 0.038	0.978 ± 0.061	0.932 ± 0.067	0.963 ± 0.062
UniProt Q7Z3K6 and related entries	1.08 ± 0.05	1.109 ± 0.008	1.14 ± 0.11	1.11 ± 0.035	1.13 ± 0.049	1.14 ± 0.029
UniProt Q6PII5-2|B4DED4	1.11 ± 0.076	1.12 ± 0.044	1.03 ± 0.035	1.02 ± 0.16	1.08 ± 0.085	1.02 ± 0.068
UniProt Q8IVB4	0.843 ± 0.063	0.799 ± 0.1	0.859 ± 0.1	0.913 ± 0.14	0.806 ± 0.18	0.899 ± 0.24
UniProt Q7Z6B0 and related entries	0.954 ± 0.068	0.968 ± 0.035	0.938 ± 0.032	0.996 ± 0.04	0.9161 ± 0.0034	0.94 ± 0.025
UniProt Q71RC2 and related entries	1.08 ± 0.067	1.1 ± 0.039	1.19 ± 0.05	1.33 ± 0.13	1.3 ± 0.048	1.42 ± 0.095
UniProt Q75N03 and related entries	1.04 ± 0.098	1.03 ± 0.069	1.05 ± 0.067	1.08 ± 0.083	1.07 ± 0.11	1.07 ± 0.13
SMG6 (UniProt Q86US8)	1.28 ± 0.019	1.25 ± 0.051	1.29 ± 0.0099	1.282 ± 0.0088	1.31 ± 0.034	1.32 ± 0.03
UniProt Q6ULP2 and related entries	0.994 ± 0.045	0.999 ± 0.018	0.997 ± 0.027	1.04 ± 0.052	0.978 ± 0.025	1 ± 0.024
DNMBP (UniProt Q6XZF7)	0.984 ± 0.078	1 ± 0.065	1.02 ± 0.06	1.03 ± 0.064	0.982 ± 0.074	0.963 ± 0.08
SAMD1 (UniProt Q6SPF0)	0.933 ± 0.04	0.951 ± 0.095	0.951 ± 0.099	0.948 ± 0.12	0.93 ± 0.068	0.9 ± 0.035
UniProt Q7Z434 and related entries	0.98 ± 0.026	0.975 ± 0.014	0.948 ± 0.023	0.9759 ± 0.0053	0.921 ± 0.039	0.9277 ± 0.0053
UniProt Q86U38	0.98 ± 0.036	0.996 ± 0.075	1.07 ± 0.095	1.04 ± 0.081	1.05 ± 0.082	1.13 ± 0.097
UniProt Q7L099-2|Q7L099-3|Q7L099-4	0.949 ± 0.024	0.983 ± 0.028	0.9414 ± 0.0072	1.01 ± 0.033	0.92 ± 0.033	0.938 ± 0.029
UniProt Q7Z3U7 and related entries	0.96 ± 0.051	0.9642 ± 0.0046	0.987 ± 0.024	0.949 ± 0.015	0.973 ± 0.012	1 ± 0.028
UniProt Q86V59 and related entries	1.07 ± 0.059	1.09 ± 0.12	1.16 ± 0.13	1.11 ± 0.061	1.13 ± 0.15	1.13 ± 0.068
UniProt Q709C8 and related entries	1.03 ± 0.079	1.03 ± 0.061	1.01 ± 0.054	0.958 ± 0.047	1.01 ± 0.027	0.993 ± 0.031
UniProt Q7L5D6	0.947 ± 0.14	0.925 ± 0.069	0.893 ± 0.021	0.78 ± 0.095	0.906 ± 0.014	0.93 ± 0.033
UniProt Q6PJG6	0.989 ± 0.034	0.977 ± 0.066	0.967 ± 0.062	0.963 ± 0.042	0.955 ± 0.049	0.947 ± 0.063
UniProt Q7Z2E3 and related entries	0.997 ± 0.059	1.04 ± 0.07	1.07 ± 0.051	1.1 ± 0.087	1.16 ± 0.038	1.19 ± 0.1
KTN1 (UniProt Q86UP2)	0.957 ± 0.058	0.93 ± 0.043	0.906 ± 0.038	0.969 ± 0.1	0.896 ± 0.039	0.888 ± 0.024
IRF2BP1 (UniProt Q8IU81)	0.9545 ± 0.0067	0.971 ± 0.025	0.967 ± 0.027	0.969 ± 0.02	0.949 ± 0.033	0.978 ± 0.029
RRM2B (UniProt Q7LG56)	1.02 ± 0.064	0.98 ± 0.06	1 ± 0.085	0.906 ± 0.06	1.04 ± 0.052	1.01 ± 0.069
UniProt Q86YP4 and related entries	1 ± 0.076	0.991 ± 0.074	0.998 ± 0.08	1.03 ± 0.13	1 ± 0.091	1.02 ± 0.071
TTC37 (UniProt Q6PGP7)	1.04 ± 0.13	1.1 ± 0.083	1.19 ± 0.078	1.16 ± 0.11	1.28 ± 0.026	1.3 ± 0.094
GPAT4 (UniProt Q86UL3)	1.05 ± 0.04	1.01 ± 0.066	1.02 ± 0.072	0.979 ± 0.049	1.02 ± 0.042	1.05 ± 0.049
UniProt Q7Z3J2 and related entries	0.987 ± 0.097	0.974 ± 0.058	0.995 ± 0.1	0.937 ± 0.074	0.999 ± 0.071	0.999 ± 0.084
UniProt Q86TP1 and related entries	0.995 ± 0.013	1.03 ± 0.064	1.03 ± 0.022	0.937 ± 0.013	0.961 ± 0.015	0.991 ± 0.033
APBB1IP (UniProt Q7Z5R6)	0.967 ± 0.026	0.997 ± 0.045	0.965 ± 0.027	0.964 ± 0.048	0.943 ± 0.036	0.948 ± 0.031
RAB43 (UniProt Q86YS6)	1 ± 0.11	0.988 ± 0.12	1 ± 0.069	0.958 ± 0.14	0.996 ± 0.056	1 ± 0.048

A different layout for part of the listing above:
UniProt Q86U38
  NP40-soluble protein abundance (concentration: 1mM): 0.98 ± 0.036
  NP40-soluble protein abundance (concentration: 2mM): 0.996 ± 0.075
  NP40-soluble protein abundance (concentration: 4mM): 1.07 ± 0.095
  NP40-soluble protein abundance (concentration: 6mM): 1.04 ± 0.081
  NP40-soluble protein abundance (concentration: 8mM): 1.05 ± 0.082
  NP40-soluble protein abundance (concentration: 10mM): 1.13 ± 0.097
UniProt Q7L099-2|Q7L099-3|Q7L099-4
  NP40-soluble protein abundance (concentration: 1mM): 0.949 ± 0.024
  NP40-soluble protein abundance (concentration: 2mM): 0.983 ± 0.028
  NP40-soluble protein abundance (concentration: 4mM): 0.9414 ± 0.0072
  NP40-soluble protein abundance (concentration: 6mM): 1.01 ± 0.033
  NP40-soluble protein abundance (concentration: 8mM): 0.92 ± 0.033
  NP40-soluble protein abundance (concentration: 10mM): 0.938 ± 0.029
